In patent publication US20130059783A1, “COMPOSITIONS AND METHODS FOR EXPANDING BFU-E CELLS” (priority 2010, published 2013):
Entries after “also recorded” stand apart in the source; their conditions may differ. At least one compound was matched to its structure with a doubt left.

Legend:
Format in all cases: cell-based, mouse
BFU-E cells = experiment: Serum free erythroid liquid expansion (SFELE) progenitor growth assay of sorted BFU-E cells
Protocol: (§1) FIGS. 1A-1F. […] Error bars show one standard deviation. […] Error bars show one standard deviation. […] Shown is the fraction of c-kit+ cells after 72 hours. […] Cell numbers in each clone were estimated under the microscope on Day 8.
(§2) FIGS. 3A-3B. […] The experimental protocol was similar to that used in FIGS. 1A and B except that the CFU-E and BFU-E cells were purer (CD71 and CD24a^20% high and CD71 and CD24a^10% low, respectively). […] (A) Proliferation of sorted CFU-E cells. […] Error bars show one standard deviation. (B) Proliferation of sorted BFU-E cells. […] Error bars show one standard deviation.
FIG. 4. […] Cells were counted from day 4 until the day cell counts dropped.
(A) The total number of cells formed from 1000 BFU-E cells at different time points. […] Standard deviation between four separate biological experiments is shown in parenthesis (n/d=not determined).
(§3) We developed a modified version of the serum free erythroid liquid expansion culture (SFELE) medium described by Dolzning et al. (Dolznig et al., 2006).

CFU-E cells = experiment: SFELE progenitor growth assay of sorted CFU-E cells; settings: CD71 and CD24a 20% high cells, 100 nM Dex and/or 333 μM DMOG
Protocol: as §1, §2, §3

[1] = tested on: Lin-Sca-1-c-kit+ bone marrow progenitor population; experiment: SFELE culture of Lin neg, c-kit pos, Sca-1 neg bone marrow cells; settings: 333 μM DMOG alone; 1 nM and 100 nM Dex
Description: FIGS. 5A-5C. […] Total cell number was counted daily and normalized to the number of cells added to the culture. (n=4). Error bars show one standard deviation.
In the bone marrow BFU-E cells are found in the Lin^neg, c-kit^pos, Sca-1^neg fraction; this cell population contains mostly a mix of lineage restricted progenitor cells of which a minority are BFU-Es (Pronk et al., 2007).

C[C@@H]1C[C@H]2[C@@H]3CCC4=CC(=O)C=C[C@]4(C)[C@@]3(F)[C@@H](O)C[C@]2(C)[C@@]1(O)C(=O)CO [Dex, dexamethasone]
Effect on CFU-E formation (BFU-E cells; 0.45 nM Dex (normal GC concentrations), absence of DMOG): do not increase CFU-E formation | Doubling time of sorted BFU-E cells (BFU-E cells; first 3 days of SFELE culture): unaffected | Increase of proliferation of sorted CFU-E cells (CFU-E cells): minimally affected; also recorded: do not significantly increase proliferation | Effect on proliferation of bone marrow cells [1]: significant increases
